# Laboratory results: PubChem BioAssay AID2517 (National Center for Advancing Translational Sciences (NCATS), 2010)
# The chains behind the UniProt entries cited, without tags or fusion partners.
# UniProt P27695, whole entry, looked up: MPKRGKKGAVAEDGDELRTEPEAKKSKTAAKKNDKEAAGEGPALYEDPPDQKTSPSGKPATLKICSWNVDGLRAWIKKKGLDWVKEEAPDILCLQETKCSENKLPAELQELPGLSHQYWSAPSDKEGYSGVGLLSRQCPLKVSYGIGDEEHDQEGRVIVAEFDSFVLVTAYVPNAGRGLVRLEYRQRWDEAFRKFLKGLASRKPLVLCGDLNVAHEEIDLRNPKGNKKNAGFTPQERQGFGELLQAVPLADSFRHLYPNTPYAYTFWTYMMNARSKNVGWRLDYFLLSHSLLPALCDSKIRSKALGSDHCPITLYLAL
# Where “and” joins values, the source holds several entries; their conditions need not be identical. Equal entries are not always repeated. Out of some 350,000 compounds screened, about 1,200 (0.34%) were called active. Inconclusive results, whose numbers are uncertain, are shown with a selection of clear calls. The call rests on the fitted dose curve; in most records, active means well fitted inhibition curve with a large enough effect; inconclusive means small, poorly fitted or top-dose-only effect; inactive means no such curve, though single readings can be large or run the other way. Potencies of inconclusive entries are doubtful fits and often do not repeat.
# Molecular target: DNA repair nuclease/redox regulator APEX1 (Homo sapiens) (UniProt P27695)
# Test: qHTS Assay for Inhibitors of the Human Apurinic/apyrimidinic Endonuclease 1 (APE1); further: nearly all actives have a fitted effect of over 55% in size;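 on activity change, negative = inhibition: plate controls were vehicle for no effect and reference inhibitor for full effect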
# Conditions: recombinant APE1, TAMRA/BHQ-2 abasic DNA cleavage fluorescence; activity change, negative = inhibition: at 65.8 µM (top of the series)
# Method in brief: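 Kinetic fluorescence read (525 ex/598 em nm, three reads 60 s apart) of AP-site incision; signal = third minus first read. Enzyme 0.75 nM, dual-labelled THF duplex 50 nM, compound preincubation 15 min RT.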
# Potency means the concentration at half of the fitted maximal effect.
Structure (SMILES),"activity change, negative = inhibition",Potency
CN(C)S(=O)(=O)c1cccc(NC(=O)COC(=O)c2ccc([N+](=O)[O-])o2)c1,inactive: -3.38%,–
COc1ccc(CCN2C(=O)CC(C(N)=O)SC2=Nc2ccccc2)cc1 (stereo not given),–,"inconclusive: 31.6 µM [inhibitor, single point]"
Cn1c(SCC(=O)N/N=C/C=C/c2ccco2)nc2ccccc21,–,active: 10 µM
Cn1cc(C2=C(c3ccc(Cl)cc3Cl)C(=O)NC2=O)c2ccccc21,–,"inconclusive: 44.7 µM [inhibitor, single point] and inconclusive: 21.2 µM [inhibitor, single point] and inconclusive: 11.2 µM [inhibitor, partial curve]"
O=C(NCC1CCCO1)c1coc2nc3ccccc3nc12 (stereo not given),inactive: 9.05%,–
CC[C@H](C)[C@H]1O[C@]2(CC[C@@H]1C)C[C@@H]1C[C@@H](C/C=C(\C)[C@@H](O[C@H]3C[C@H](OC)[C@@H](O[C@H]4C[C@H](OC)[C@@H](O)[C@H](C)O4)[C@H](C)O3)[C@@H](C)/C=C/C=C3\CO[C@@H]4[C@H](O)C(C)=C[C@@H](C(=O)O1)[C@]34O)O2,inactive: 9.71%,–
O=C(NCCn1ccc2ccccc21)c1cccc([N+](=O)[O-])c1,–,"inconclusive: 0.02 µM [inhibitor, full curve, poor fit]"
CC(C)=CCc1c(O)cc2oc3c(CC=C(C)C)c(O)c(O)c(CC=C(C)C)c3c(=O)c2c1O,–,"inconclusive: 22.4 µM [inhibitor, partial curve]"
C/C=C\C1=C(CO)C(=O)[C@@H]2OC2C1=O (stereo not given in full),–,active: 1.58 µM
Cc1ccc(S(=O)(=O)Nc2cccc3ncccc23)s1,–,"inconclusive: 2.24 µM [inhibitor, full curve, poor fit]"
COc1cc(/C=N/NC(=O)c2cccc(S(=O)(=O)N3CCCCC3)c2)cc(Br)c1O,–,"inconclusive: 31.6 µM [inhibitor, single point]"
CCOc1ccccc1-n1c(SCC(N)=O)nnc1-c1ccco1,–,"inconclusive: 44.7 µM [inhibitor, single point]"
NS(=O)(=O)c1ccc(NC(=O)COC(=O)c2c3c(nc4ccccc24)/C(=C\c2ccc4c(c2)OCO4)CCC3)cc1,–,"inconclusive: 28.2 µM [inhibitor, single point]"
O=C(N/N=C/c1cc(Cl)ccc1O)c1ccc(Br)cc1,–,"inconclusive: 22.4 µM [inhibitor, single point]"
Cc1ccc(C)n1-c1cccc(C(=O)O)c1,–,active: 1.78 µM
CC(=O)Nc1nc(C(=O)O)cs1,–,"inconclusive: 6.31 µM [inhibitor, partial curve, poor fit]"
Cn1nc(-c2ccc(Cl)cc2)nc2c(=O)n(C)c(=O)nc1-2,–,"inconclusive: 0.708 µM [inhibitor, full curve]"
Cc1ccc(-c2nn(-c3ccccc3)c3[nH]c(=O)c(CNCCN(C)C)cc23)cc1,–,"inconclusive: 0.199 µM [inhibitor, full curve]"
COc1ccc2c(c1)c(=O)oc1cc3oc(C)c(C)c3cc12,–,"inconclusive: 31.6 µM [inhibitor, partial curve]"
Cc1ccccc1Nc1nc(-c2sc(NC(=O)c3ccc([N+](=O)[O-])cc3)nc2C)cs1,–,"inconclusive: 39.8 µM [inhibitor, partial curve, poor fit]"

Structure (SMILES),"activity change, negative = inhibition",Potency
CCOC(=O)c1nnn(CC(=O)N2N=C(c3ccc(Cl)cc3)CC2c2ccccc2)c1C(=O)OCC (stereo not given),–,"inconclusive: 44.7 µM [inhibitor, single point]"
Cc1ccc(C(C(=O)NC2CCCCC2)N(Cc2ccccc2)C(=O)Cc2c[nH]c3ccccc23)o1 (stereo not given),–,"inconclusive: 35.5 µM [inhibitor, single point]"
Cc1cccn2c(=O)c3cc(C(=O)NC4CCCC4)c(=N)n(CCc4ccccc4)c3nc12,inactive: -8.52%,–
CCn1c(SCC(=O)N/N=C/C=C\c2ccco2)nc2ccccc21,–,"inconclusive: 35.5 µM [inhibitor, single point]"
CN(C)c1ccc(CNC(=O)CCNS(=O)(=O)c2cc(Br)cnc2N)cc1,inactive: -8.87%,–
Cc1c(S(=O)(=O)N2CCN(c3ccccc3)CC2)c(=O)n(C)c(=O)n1C,–,"inconclusive: 0.0398 µM [inhibitor, full curve, poor fit]"
CC(=NCc1ccncc1)C1=C(O)c2ccccc2C1=O,–,"inconclusive: 44.7 µM [inhibitor, single point]"
COc1ccc(-c2nc3cnc(OC)nc3n(-c3ccccc3)c2=O)cc1,inactive: -4.45%,–
Cc1ccc(Nc2cc(C)c3c(O)cccc3n2)cc1C,–,"inconclusive: 39.8 µM [inhibitor, single point]"
CN(C)S(=O)(=O)Oc1ccsc1C(=O)Nc1cccc(Cl)c1,–,"inconclusive: 11.2 µM [inhibitor, partial curve, poor fit]"
Cc1ccc2sc(NNC(=O)c3ccc4c(c3)OCCO4)nc2c1C,–,"inconclusive: 44.7 µM [inhibitor, single point]"
Cc1ccc(-c2nc3ccccc3[nH]c2=O)cc1,–,"inconclusive: 1.12 µM [inhibitor, full curve]"
O=C(O)CCSc1nnc(COc2ccc([N+](=O)[O-])cc2)n1-c1ccccc1,inactive: -1.52%,–
Cc1cnc(C(=O)OCC(=O)c2ccccc2)cn1,inactive: 1.19%,–
Oc1ccc2c(c1)C1CCCC1(N1CCOCC1)O2 (stereo not given),–,"inconclusive: 31.6 µM [inhibitor, partial curve]"
Nc1cc(Cl)c([N+](=O)[O-])cc1O,inactive: -2.06%,–
Oc1c(C=Nc2ccccc2)sc(=S)n1Cc1ccccc1,–,"inconclusive: 20 µM [inhibitor, single point]"
N#CC1(C#N)COC23CCCCC2C1(C#N)C(=N)O3 (stereo not given),–,"inconclusive: 44.7 µM [inhibitor, single point]"
CC(C)(C)OC(=O)NCCCC[C@H](NC(=O)c1nc[nH]c1C(=O)NCc1ccccc1)C(=O)OC(C)(C)C,–,"inconclusive: 25.1 µM [inhibitor, partial curve]"
COc1ccc(NC(=S)N(CCCN2CCCCCC2)Cc2cccs2)cc1,–,"inconclusive: 10 µM [inhibitor, single point]"

# 11 entries from above, arranged by heavy-atom count, low to high.
Structure (SMILES),"activity change, negative = inhibition",Potency
Nc1cc(Cl)c([N+](=O)[O-])cc1O,inactive: -2.06%,–
Cc1ccc(-c2nc3ccccc3[nH]c2=O)cc1,–,"inconclusive: 1.12 µM [inhibitor, full curve]"
Cc1cnc(C(=O)OCC(=O)c2ccccc2)cn1,inactive: 1.19%,–
CC(=NCc1ccncc1)C1=C(O)c2ccccc2C1=O,–,"inconclusive: 44.7 µM [inhibitor, single point]"
CN(C)S(=O)(=O)Oc1ccsc1C(=O)Nc1cccc(Cl)c1,–,"inconclusive: 11.2 µM [inhibitor, partial curve, poor fit]"
Cc1ccc2sc(NNC(=O)c3ccc4c(c3)OCCO4)nc2c1C,–,"inconclusive: 44.7 µM [inhibitor, single point]"
Cc1c(S(=O)(=O)N2CCN(c3ccccc3)CC2)c(=O)n(C)c(=O)n1C,–,"inconclusive: 0.0398 µM [inhibitor, full curve, poor fit]"
COc1ccc(-c2nc3cnc(OC)nc3n(-c3ccccc3)c2=O)cc1,inactive: -4.45%,–
Cc1cccn2c(=O)c3cc(C(=O)NC4CCCC4)c(=N)n(CCc4ccccc4)c3nc12,inactive: -8.52%,–
CCOC(=O)c1nnn(CC(=O)N2N=C(c3ccc(Cl)cc3)CC2c2ccccc2)c1C(=O)OCC (stereo not given),–,"inconclusive: 44.7 µM [inhibitor, single point]"
CC(C)(C)OC(=O)NCCCC[C@H](NC(=O)c1nc[nH]c1C(=O)NCc1ccccc1)C(=O)OC(C)(C)C,–,"inconclusive: 25.1 µM [inhibitor, partial curve]"
